Source: PubChem BioAssay AID743121 (NCATS, 2013)
Shown is one part, drawn at random, of about 26,000 reagents tested. Of all reagents, 167 (0.63%) were called active. 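Calls are per gene from RSA p-values that are not deposited; an individual active-marked siRNA can sensitise only weakly.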 Unmarked entries are inactive. Reagents against one gene are numbered here. Reagent sequences are not shown.

Assay: 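Knock-downs that sensitise breast cancer cells to camptothecin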 (primary screen)
Cell system: MDA-MB-231 cells, a human breast cancer line
Knock-down reagent: single siRNA against human genes, 20 nM siRNA (0.8 pmol per well)
Time to read-out: 120 h (drug added 48 h after transfection, read 72 h later)
Conditions: camptothecin 20 nM (about EC30) for 72 h; vehicle 0.1% DMSO in parallel plates
Read-out: 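Cell viability by ATP luminescence (CellTiter-Glo) as % of non-targeting siRNA wells, and the log2 ratio of viability without drug over viability with camptothecin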
Reading the numbers: log2 vehicle/camptothecin viability: higher = stronger sensitisation to camptothecin; viability with camptothecin and viability without drug: higher = more viable cells
Rule for the call: 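Active genes have an RSA gene-level p-value below 0.001, computed from the ratios of their separate siRNAs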

no.	target	reagent no.	log2 vehicle/camptothecin viability	viability with camptothecin (% of control)	viability without drug (% of control)
1	CAPN2 (GeneID 824)	1	-0.137	75.8	68.9
2	CAPN2 (GeneID 824)	2	0.13	66.7	73
3	CAPN2 (GeneID 824)	3	0.299	18.4	22.7
4	IDO1 (GeneID 3620)	1	0.76	49	82.9
5	IDO1 (GeneID 3620)	2	-0.12	73.2	67.4
6	IDO1 (GeneID 3620)	3	-0.23	88.5	75.5
7	IDO1 (GeneID 3620)	4	-0.42	34.4	25.7
8	GAK (GeneID 2580)	1	-0.586	86	57.3
9	GAK (GeneID 2580)	2	-0.455	84.4	61.6
10	GAK (GeneID 2580)	3	-0.5	60.7	42.9
11	GAK (GeneID 2580)	4	-0.392	99.3	75.6
12	VRK3 (GeneID 51231)	1	-0.37	105	80.9
13	VRK3 (GeneID 51231)	2	0.524	45.9	65.9
14	VRK3 (GeneID 51231)	3	-0.413	82.8	62.2
15	VRK3 (GeneID 51231)	4	-0.699	51.9	32
16	GPR20 (GeneID 2843)	1	-0.357	93.2	72.7
17	GPR20 (GeneID 2843)	2	-0.261	69.9	58.4
18	GPR20 (GeneID 2843)	3	-0.205	114	98.9
19	GPR20 (GeneID 2843)	4	0.546	37.8	55.2
20	SLC25A42 (GeneID 284439)	1	-0.273	108	89.2
21	SLC25A42 (GeneID 284439)	2	-0.159	62.5	56
22	SLC25A42 (GeneID 284439)	3	0.662	51.6	81.7
23	SLC25A42 (GeneID 284439)	4	-0.365	96.3	74.8
24	WSB2 (GeneID 55884)	1	0.622	57.7	88.8
25	WSB2 (GeneID 55884)	2	0.157	70.2	78.3
26	WSB2 (GeneID 55884)	3	-0.308	62	50.1
27	CHRM1 (GeneID 1128)	1	-0.258	51.3	42.9
28	CHRM1 (GeneID 1128)	2	-0.0697	90.1	85.9
29	CHRM1 (GeneID 1128)	3	0.49	53	74.4
30	CHRM1 (GeneID 1128)	4	-0.488	89.7	63.9

Records listed so far whose target name starts with I or i (4):
target	reagent no.	log2 vehicle/camptothecin viability	viability with camptothecin (% of control)	viability without drug (% of control)
IDO1 (GeneID 3620)	1	0.76	49	82.9
IDO1 (GeneID 3620)	2	-0.12	73.2	67.4
IDO1 (GeneID 3620)	3	-0.23	88.5	75.5
IDO1 (GeneID 3620)	4	-0.42	34.4	25.7
